Library screen at single concentrations

Each number is a percent effect as filed.
The record does not define 0% and 100%; most values in the screen are far below 50% and negative numbers occur (in some assays of this library far below -100).
The compounds are a random part of those screened.
Two or more numbers in one place are separate tests of the same structure; such repeats can differ widely.

Mtb cholesterol medium: 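Whole-cell growth test on Mycobacterium tuberculosis, read after 4 days in a medium based on cholesterol and the lipid DPPC; the read-out is not stated. Concentration: 50 µM. The record gives no direction; compounds that gave an IC50 in retests scored well above the rest, so higher reads as more growth inhibition. About 69,000 compounds were tested under these conditions; 0.54% (about 370) showed 50% or more at least once.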
Mtb glucose medium: 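Whole-cell growth test on Mycobacterium tuberculosis, read after 3 days in glucose-containing 7H9 medium; the read-out is not stated. Compounds at 50 µM. Direction is inferred from retests: higher values go with more growth inhibition. About 69,000 compounds were tested under these conditions; 1.1% (about 760) showed 50% or more at least once.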

| # | SMILES | Mtb cholesterol medium | Mtb glucose medium |
|---|---|---|---|
| 1 | `Cc1cccc(NC(=O)C2CC(=O)n3cnnc3S2)c1` (stereo unspecified) | -10.65% | 8.564% and 10.77% |
| 2 | `Cc1ccc(CNC(=O)Nc2nnc(C)s2)cn1` | -7.463% | -1.67% |
| 3 | `COc1ccc(-c2nc(CNC(C)Cn3cccn3)cs2)cc1` (stereo unspecified) | 42.13% | 59.35% |
| 4 | `Fc1ccc(-c2ccc(CNC3CCc4ncnn4C3)o2)cc1` (stereo unspecified) | -0.7649% | 11.28% |
| 5 | `Cc1ccc(F)c(C(=O)N2CCN(S(C)(=O)=O)[C@@H](C)C2)c1` | -4.337% | 9.155% and 8.638% |
| 6 | `O=C(c1ccno1)N1CC(c2nc(-c3ccco3)no2)C1` | 16.6% | -2.029% |
| 7 | `COC(=O)C1CCCN1C(=O)c1ccc(-n2nc(C)cc2C)cc1` (stereo unspecified) | -11.18% | -14.79% |
| 8 | `Cc1c(C(=O)NC2CCCOc3cc(Cl)ccc32)cnn1C` (stereo unspecified) | 2.861% | 27.4% |
| 9 | `Cc1cc(C)c2ncc(C#N)c(NC3CCN(CC(N)=O)CC3)c2c1` | -2.755% | -19.37% and 27.9% |
| 10 | `CSC(C)(C)CNC(=O)NC1CCSCC1` | 19.55% | 14.52% |
| 11 | `Cn1c(C(=O)NS(C)(=O)=O)ccc1-c1ccccc1` | -21.97% | -32.02% |
| 12 | `CC(=O)N1CCCN(Cc2ccon2)c2ccccc21` | -2.548% | 33.26% and 5.041% |
| 13 | `COCc1cc(O)nc(C2CCCN(Cc3ccc(OC)cc3)C2)n1` (stereo unspecified) | -17.67% | -7.472% |
| 14 | `CCc1ncc2c(n1)CN(C(=O)Cc1cc(OC)cc(OC)c1)C2` | -10.15% | -12.71% |
| 15 | `COc1ccc(Oc2ncccc2C(N)=O)cc1CN1CCCC1` | 13.1% | -15.34% and -2.716% |
| 16 | `CCN(CC)S(=O)(=O)c1cc2c3c(c1)c(C)cc(=O)n3CC2` | -6.676% and 5.404% | -14.18% |
| 17 | `CC1(C)CN(S(=O)(=O)N2CCCC2)CC1c1ccccc1` (stereo unspecified) | 3.083% | 1.714% and 22.43% |
| 18 | `Cc1ccc2c(c1)CN(C(=O)c1ccncc1)C(CN(C)C)CO2.Cl` (stereo unspecified) | -14.36% | 14.6% |
| 19 | `CN(C)c1ncccc1CNc1cc(N2CCCC2CO)ncn1` (stereo unspecified) | 3.41% | 9.972% |
| 20 | `O=C(Nc1nnc(C2CC2)s1)NC1CCOc2ccccc21` (stereo unspecified) | -27.77% and -12.01% | -46.74% |
| 21 | `COc1ccc(-c2ncc(-c3nccn3CCN(C)C)cn2)cc1` | -5.538% | 8.588% |
| 22 | `[H][C@]12CCN(S(=O)(=O)Cc3ccccc3)[C@@]1([H])CC[C@@H](COCC)O2` | -0.3718% | -1.832% |
| 23 | `CN(CCNC(=O)c1cnc(-c2ccccc2)nc1)S(C)(=O)=O` | -13.14% | -18.71% |
| 24 | `c1cnc(-c2nc(CN3CCCC3Cn3cncn3)cs2)nc1` (stereo unspecified) | -9.158% | 4.963% |
| 25 | `Cc1ccsc1C(=O)N1CC2CC1(C(=O)NCC1CC1)C2` | -2.336% | -18.28% |
| 26 | `CC(C)(C)c1nc(CC(=O)NC2CCN(C3CC3)C2)cs1` (stereo unspecified) | 8.288% | 29.75% |
| 27 | `O=C1N(Cc2ccc(F)c(F)c2)CCCC12CCN(C1CCCC1)C2` (stereo unspecified) | 32.95% | 64.08% and 51.83% |
| 28 | `CCn1nc(C)c(CN(CCOC)Cc2ccccn2)c1C` | 6.38% | -3.732% and -19.53% |
| 29 | `CN(Cc1ccccc1)CC1(O)CCCN(CCC2CCCCC2)C1=O` (stereo unspecified) | 7.368% | 90.7% |
| 30 | `O=C(O)C(F)(F)F.O=C(O)C(F)(F)F.[H][C@@]12CN(Cc3ccsc3)CCC[C@]1(C(=O)OCC)CN(CCOC)C2` | -8.674% | 1.279% and 13.01% |
| 31 | `NC(=O)CN(CC1CCOC1)C1CC1` (stereo unspecified) | -12.98% | -10.1% |
| 32 | `CNc1cc(CCNC(=O)c2cccnc2)nc(-c2ccncc2)n1` | -13.36% | -3.801% |
| 33 | `COC(=O)c1cccc2nc([C@H]3CCN(C4CCN(C)CC4)C3)oc12` | -28.64% | -5.946% and 5.025% |
| 34 | `CC(C)c1ccc(-n2ncc(C(=O)N(C)C3CCN(C)CC3)c2N)cc1` | -10.56% | 7.876% |
| 35 | `O=C(c1ccoc1)N1Cc2cnn(CC3CC3)c2C(COCC2CC2)C1` (stereo unspecified) | -16.06% | -53.79% |
| 36 | `CC1CCN(C)c2ccccc2N1C(=O)c1ccnc(-n2cncn2)c1` (stereo unspecified) | -15.86% | 0.517% and 1.795% |
| 37 | `Cc1cccc(C(C(=O)NCc2csc(-c3ncccn3)n2)N(C)C)c1` (stereo unspecified) | -1.623% | 6.923% |
| 38 | `COc1ccc2c(c1)C(C(=O)N(C)CCCc1cnn(C)c1)CC(=O)N2` (stereo unspecified) | 7.056% | 45.58% |
| 39 | `[H][C@@]12CS(=O)(=O)C[C@]1([H])N(C(=O)N(C)C)CCN2Cc1ccccc1` | 10.98% | -22.47% |
| 40 | `CCc1noc(C(C)N2CCC(N3CCCCC3)CC2)n1` (stereo unspecified) | 0.06378% | -0.8142% |
| 41 | `CNC(=O)N1CCc2nc(C(=O)NCc3cccc(OC)c3)sc2CC1` | -25.62% and -11.29% | -31.26% |
| 42 | `CCCc1noc(C2CCN(C(=O)CCn3nc(C)cc3C)CC2)n1` | -5.47% | 29.54% |
| 43 | `CN(Cc1ccccn1)C(=O)c1nc(S(C)(=O)=O)n2ccccc12` | -3.726% | 17.27% |
| 44 | `COCCCNC(=O)Nc1ccc(OCc2noc(C3CC3)n2)cc1` | -7.346% | -17.19% and 2.74% |
| 45 | `CCn1c(Cn2cncn2)nnc1C1CCN(C2CCOCC2)CC1` | -62.12% | -84.76% |
| 46 | `COc1cccc2c1OCC(NC(=O)NC1CCN(C3CC3)CC1)C2` (stereo unspecified) | -3.812% | 1.629% and 12.57% |
| 47 | `Cc1cc(C)c(CNC(=O)NCC2CCCO2)c(=O)[nH]1` (stereo unspecified) | -7.472% | -39.29% |
| 48 | `CC(C#N)CNC(=O)Nc1ccc(-c2cc[nH]n2)cc1` (stereo unspecified) | -3.831% | 9.616% |
| 49 | `O=C(O)C(F)(F)F.[H][C@]12CCN(CC(C)C)CC[C@@]1([H])S(=O)(=O)CCN2C(C)=O` | -15.35% | -41.13% |
| 50 | `Cc1cc(C)c(CNC(=O)NCc2ccncc2)c(=O)[nH]1` | -5.485% | -2.587% and -45.89% |
| 51 | `CC1=Nc2c(c(O)nn2C(C)C)C(c2cn(C)nc2C)S1` (stereo unspecified) | -17.29% | -23.75% |
| 52 | `COc1ccc2c(c1)OC1(CCN(Cc3cccc(C)c3)CC1)CC2=O` | 2.825% | 13.63% |
| 53 | `O=C1CCOC[C@]2(CN(Cc3ccccc3)C[C@H]2c2ccccc2F)N1` | 16.48% and -1.556% | -7.816% |
| 54 | `Cc1cnn(C2CCCN(C(=O)c3cc(C4CC4)on3)C2)c1` (stereo unspecified) | 23.99% | 35.98% |
| 55 | `COc1cccc([S+]([O-])CC(=O)NCc2cc(F)cc(F)c2)c1` (stereo unspecified) | 9.131% | 35.62% |
| 56 | `Cc1nn(C)c(C)c1CC(=O)N1CCCN(c2cccnn2)CC1` | 4.677% | 5.219% |
| 57 | `Cc1ncc2c(n1)CCN(CCCc1nc3ccccc3o1)C2` | -1.766% | -12.58% |
| 58 | `O=C(O)CNc1cc(-c2cc(C(=O)NC3CC3)ccn2)c2cc[nH]c2n1` | -12.11% | 4.402% |
| 59 | `Clc1cccc(C(CNc2ncccn2)N2CCOCC2)c1` (stereo unspecified) | 6.315% | -12.82% |
| 60 | `CCNC(=O)CN1CCN(c2cc(C)nc(-c3ccncc3)n2)CC1` | -13.91% | -16.42% |
| 61 | `NC(=O)C1CCN(CCc2ccc(NC(=O)C3CC3)cc2)CC1` | -2.623% | -9.087% |
| 62 | `[H][C@@]12CCN(Cc3nccs3)C[C@@]1([H])O[C@@H](c1ccncn1)C2` | -0.3368% | -0.5611% and 22.32% |
| 63 | `O=C(c1cc2c(F)cccc2[nH]1)N1CCC(Nc2cccnn2)CC1` | -18.58% | 9.787% |
| 64 | `Cc1cccc(OCCNC(=O)CN2CCc3cncnc3C2)c1` | -20% | 1.33% |
| 65 | `O=C(c1cccnc1-n1cccn1)N1CCN(CC2CC2)CC1` | 19.06% | -7.897% |
| 66 | `O=S(=O)(C1CC1)N1CCc2ncc(Cn3cncn3)n2CC1` | -9.972% | -15.88% and -4.934% |
| 67 | `CCN1CCC(c2nnc(CN3CCCC3)n2C2CC2)CC1` | -17.66% | -11.69% |
| 68 | `CCc1noc(CNc2ccc(C(=O)N3CCCC3)cc2C)n1` | -17.84% | 16.27% |
| 69 | `[H][C@]12CC[C@]([H])(CN(CC(=O)N(C)C)C1)N(Cc1cc(F)ccc1F)C2` | -20.34% | -44.19% |
| 70 | `CCc1[nH]c2c(CNc3cc(C)nc(NC)n3)cc(C)cc2c1C` | 69.7% | 71.91% and 56.62% |
| 71 | `O=C(O)C(F)(F)F.[H][C@@]12CCC(=O)N(CCOC)[C@@]1([H])CCN2Cc1c(C)noc1C` | 6.364% | 16.06% |
| 72 | `CCc1noc(C)c1C(=O)N1CCCN(Cc2cscn2)CC1` | -0.9857% | -12.76% |
| 73 | `CNc1cc(C2CCCN2C(=O)c2ccc(=O)[nH]n2)ccn1.O=CO` (stereo unspecified) | 2.377% | 0.7306% |

Source: ChEMBL document CHEMBL3988442, “University of Dundee, Small-Polar-MMV Screening Library” (2021).